Laboratory results: PubChem BioAssay AID1159578 (Peter MacCallum Cancer Centre, 2015)
The deposit covers about 18,000 reagents; this is a part drawn at random. About 1,030 of all reagents (5.7%) were called active. 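Inactive calls also include pools with fewer than 3300 nuclei, whose migration was not assessed.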 Raw values are not corrected between plates. Further read-outs or replicates are left out here.

Aim: 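Genome-wide hunt for genes controlling movement of lymphatic endothelial cells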 (primary screen)
Cells: human lymphatic endothelial cells
Reagent: siRNA pool against human genes, 40 nM
Time to read-out: 48 h after transfection
Measurement: 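Cells stained with dye and imaged after a scratch; covered wound area and nuclei counted, duplicates averaged, migration set against mock wells and turned into a robust z-score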
Direction: migration robust z-score: higher = faster migration into the scratch; nuclei per well: higher = more cells in the well
Call rule: 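Migration changed when robust z exceeds 2 or falls below -2 and mean nuclei number is at least 3300; otherwise not called changed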
Meaning of the calls: active = migration changed; inactive = no migration change, or too few cells

Depletion of LILRA2 gave: migration robust z-score -0.04; nuclei per well, duplicate mean 6228; inactive.
For PGAP3, the values are migration robust z-score 0.02; nuclei per well, duplicate mean 5076; inactive.
For SRPRA, the entry reads migration robust z-score -0.31; nuclei per well, duplicate mean 4772; inactive.
With knock-down of TYW5 the results were migration robust z-score 1.5; nuclei per well, duplicate mean 6436; inactive.
With knock-down of SH3GLB2 the results were migration robust z-score 0.51; nuclei per well, duplicate mean 6230; inactive.
With knock-down of MED17, the screen gave migration robust z-score -0.26; nuclei per well, duplicate mean 5807; inactive.
TRAF2 gave migration robust z-score -0.91; nuclei per well, duplicate mean 4992; inactive.
Depletion of COX15 gave: migration robust z-score -0.26; nuclei per well, duplicate mean 5115; inactive.
After knock-down of MAS1, the screen gave migration robust z-score 1.02; nuclei per well, duplicate mean 6168; inactive.
NMNAT3 showed migration robust z-score 0.02; nuclei per well, duplicate mean 3998; inactive.
Against ZNF304 the deposit lists migration robust z-score -1.75; nuclei per well, duplicate mean 2817; inactive.
Silencing of PORCN resulted in: migration robust z-score -0.68; nuclei per well, duplicate mean 6175; inactive.
After knock-down of MEGF9, the screen gave migration robust z-score 0.74; nuclei per well, duplicate mean 6349; inactive.
FAT4 showed migration robust z-score -0.18; nuclei per well, duplicate mean 4720; inactive.
For PDZRN3 the deposit lists migration robust z-score -0.05; nuclei per well, duplicate mean 5726; inactive.
Against OR4Q3, the entry reads migration robust z-score -0.56; nuclei per well, duplicate mean 5996; inactive.
Against MGST3, the entry reads migration robust z-score 0.18; nuclei per well, duplicate mean 6838; inactive.
ZNF345 scored migration robust z-score 0.78; nuclei per well, duplicate mean 5148; inactive.
Against SNCG, the values are migration robust z-score 0.4; nuclei per well, duplicate mean 6524; inactive.
Depletion of C6orf62 resulted in: migration robust z-score 0.6; nuclei per well, duplicate mean 6096; inactive.
CCNB2 showed migration robust z-score -0.96; nuclei per well, duplicate mean 5138; inactive.

2 entries already listed, sorted by “migration robust z-score”, ascending.
OR4Q3 | migration robust z-score = -0.56; nuclei per well, duplicate mean = 5996; call = inactive
PDZRN3 | migration robust z-score = -0.05; nuclei per well, duplicate mean = 5726; call = inactive
